Values from PubChem BioAssay AID1259405 (NCATS, 2018)

Aim: 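Mouse-designed siRNAs used to find CHO productivity engineering targets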 (primary screen)
System: Chinese hamster CHO-K1 ovary cells with stable secreted eGFP expression
Knock-down reagent: single siRNA against mouse genes, 0.8 pmol siRNA per well (2 µl of 400 nM stock)
Duration: 3 days
Measurement: 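Per-well intracellular GFP measured by laser scanning cytometry, plus viability from ATP luminescence, each relative to plate median of non-targeting control wells, in %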
Reading the numbers: GFP, % of control: higher = more GFP per well, higher productivity; viability (ATP), % of control: higher = more viable cells (more ATP)
Rule for the call: 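a knock-down is called active if GFP reaches 120% or more of non-targeting control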
This is one part, drawn at random, of about 50,000 reagents tested. About 4,000 of all reagents (8%) were called active. 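Mouse siRNA library applied to hamster cells; one well for each siRNA.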 Unmarked entries are inactive. Reagent sequences are not shown.

Timm13 (translocase of inner mitochondrial membrane 13) [SID363572828]: GFP, % of control = 57.9; viability (ATP), % of control = 32.5
Timm13 (translocase of inner mitochondrial membrane 13) [SID363577404]: GFP, % of control = 49.5; viability (ATP), % of control = 54
Timm13 (translocase of inner mitochondrial membrane 13) [SID363580924]: GFP, % of control = 54.4; viability (ATP), % of control = 103
Ndufb11b (NADH:ubiquinone oxidoreductase subunit B11B) [SID363543656]: GFP, % of control = 67.8; viability (ATP), % of control = 74.2
Ndufb11b (NADH:ubiquinone oxidoreductase subunit B11B) [SID363553149]: GFP, % of control = 80.7; viability (ATP), % of control = 73.3
Ndufb11b (NADH:ubiquinone oxidoreductase subunit B11B) [SID363558997]: GFP, % of control = 49.5; viability (ATP), % of control = 82.8
Apcs (amyloid P component, serum) [SID363582594]: GFP, % of control = 112; viability (ATP), % of control = 110
Apcs (amyloid P component, serum) [SID363584354]: GFP, % of control = 89.1; viability (ATP), % of control = 62
Wnt1 (WNT family member 1) [SID363541923]: GFP, % of control = 57.3; viability (ATP), % of control = 49.5
Wnt1 (WNT family member 1) [SID363553515]: GFP, % of control = 93.7; viability (ATP), % of control = 73.4
Wnt1 (WNT family member 1) [SID363566839]: GFP, % of control = 106; viability (ATP), % of control = 57.7
Or8g36 (olfactory receptor family 8 subfamily G member 36) [SID363554784]: GFP, % of control = 73; viability (ATP), % of control = 47.1
Or8g36 (olfactory receptor family 8 subfamily G member 36) [SID363568231]: GFP, % of control = 58.5; viability (ATP), % of control = 48.2
Or8g36 (olfactory receptor family 8 subfamily G member 36) [SID363586290]: GFP, % of control = 55.2; viability (ATP), % of control = 70.8
Eif4h (eukaryotic translation initiation factor 4H) [SID363569197]: GFP, % of control = 88.5; viability (ATP), % of control = 112
Eif4h (eukaryotic translation initiation factor 4H) [SID363583629]: GFP, % of control = 69; viability (ATP), % of control = 78.9
Gtf2f2 (general transcription factor IIF, polypeptide 2) [SID363573293]: GFP, % of control = 73.4; viability (ATP), % of control = 61.2
Gtf2f2 (general transcription factor IIF, polypeptide 2) [SID363588532]: GFP, % of control = 112; viability (ATP), % of control = 101
Zfp503 (zinc finger protein 503) [SID363556719]: GFP, % of control = 93.6; viability (ATP), % of control = 69.5
Zfp503 (zinc finger protein 503) [SID363563623]: GFP, % of control = 68.6; viability (ATP), % of control = 65.9
Zfp503 (zinc finger protein 503) [SID363587169]: GFP, % of control = 89.9; viability (ATP), % of control = 88.7
Cdin1 (CDAN1 interacting nuclease 1) [SID363547031]: GFP, % of control = 26.3; viability (ATP), % of control = 37.4
Cdin1 (CDAN1 interacting nuclease 1) [SID363549843]: GFP, % of control = 100; viability (ATP), % of control = 121
Cdin1 (CDAN1 interacting nuclease 1) [SID363587897]: GFP, % of control = 99.6; viability (ATP), % of control = 94.6
Hspb6 (heat shock protein family B (small) member 6) [SID363553720]: GFP, % of control = 81.1; viability (ATP), % of control = 91.7
Hspb6 (heat shock protein family B (small) member 6) [SID363561677]: GFP, % of control = 97.2; viability (ATP), % of control = 79.6
Hspb6 (heat shock protein family B (small) member 6) [SID363565415]: GFP, % of control = 30.7; viability (ATP), % of control = 30.6
Tbata (thymus, brain and testes associated) [SID363543327]: GFP, % of control = 123 (active); viability (ATP), % of control = 77.6
Tbata (thymus, brain and testes associated) [SID363552820]: GFP, % of control = 91.8; viability (ATP), % of control = 47
Tbata (thymus, brain and testes associated) [SID363558668]: GFP, % of control = 103; viability (ATP), % of control = 57.4
Stxbp1 (syntaxin binding protein 1) [SID363553532]: GFP, % of control = 133 (active); viability (ATP), % of control = 54
Stxbp1 (syntaxin binding protein 1) [SID363561489]: GFP, % of control = 36.7; viability (ATP), % of control = 31.6
Stxbp1 (syntaxin binding protein 1) [SID363565227]: GFP, % of control = 78.7; viability (ATP), % of control = 71.4
Ikbip (IKBKB interacting protein) [SID363540848]: GFP, % of control = 94.6; viability (ATP), % of control = 95
Ikbip (IKBKB interacting protein) [SID363543299]: GFP, % of control = 81.5; viability (ATP), % of control = 94.5
Ikbip (IKBKB interacting protein) [SID363552792]: GFP, % of control = 53.1; viability (ATP), % of control = 23.3
Ldhd (lactate dehydrogenase D) [SID363547606]: GFP, % of control = 116; viability (ATP), % of control = 83.6
Ldhd (lactate dehydrogenase D) [SID363558375]: GFP, % of control = 97.3; viability (ATP), % of control = 49.6
Ldhd (lactate dehydrogenase D) [SID363560133]: GFP, % of control = 85.9; viability (ATP), % of control = 74.3
Gabrb3 [SID363574314]: GFP, % of control = 89.5; viability (ATP), % of control = 86.4
Gabrb3 [SID363575370]: GFP, % of control = 73.3; viability (ATP), % of control = 77.7
Gabrb3 [SID363579946]: GFP, % of control = 85; viability (ATP), % of control = 76
